Some entries of the source have several records that differ or are many. This list holds those alone. There may be further records. Results that share an entry do not match, cause unknown; they may come from other doses, times, organisms or constructs than stated.
Molecular target: LTA4H (Homo sapiens, UniProt P09960)
Assay: PGP peptidolysis assay by LC-MS/MS
Type: biochemical
Settings: Table 2; fold selectivity

The chains behind the UniProt entries cited, without tags or fusion partners.
UniProt P09960, whole entry: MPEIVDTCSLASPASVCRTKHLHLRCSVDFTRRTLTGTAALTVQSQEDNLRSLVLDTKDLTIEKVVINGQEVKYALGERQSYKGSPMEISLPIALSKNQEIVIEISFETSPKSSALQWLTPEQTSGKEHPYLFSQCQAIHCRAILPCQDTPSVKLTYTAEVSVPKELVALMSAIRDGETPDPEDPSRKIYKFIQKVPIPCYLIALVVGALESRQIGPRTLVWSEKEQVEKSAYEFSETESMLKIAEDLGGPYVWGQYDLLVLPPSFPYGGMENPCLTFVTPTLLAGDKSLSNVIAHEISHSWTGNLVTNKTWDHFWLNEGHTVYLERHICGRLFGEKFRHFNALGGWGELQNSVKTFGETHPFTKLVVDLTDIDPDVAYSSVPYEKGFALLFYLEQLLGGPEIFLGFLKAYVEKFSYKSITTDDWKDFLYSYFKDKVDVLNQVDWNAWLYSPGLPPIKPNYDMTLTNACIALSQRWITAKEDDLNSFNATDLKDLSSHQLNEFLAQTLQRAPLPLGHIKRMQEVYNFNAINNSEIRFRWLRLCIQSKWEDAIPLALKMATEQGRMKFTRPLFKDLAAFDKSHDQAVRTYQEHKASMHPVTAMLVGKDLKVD

SMILES: O=Cc1ccc(Oc2nc3ncccc3s2)cc1
- Ratio IC50 PGP/Arg-AMC: approximately 4 and 4.0

SMILES: O=Cc1ncc(Oc2nc3ccccc3s2)cn1 [Compound 16]
- Ratio IC50 PGP/Arg-AMC: approximately 4 and 4.4

From publication PMC5648829 (Scientific Reports, 2017)
